# US20090098049A1, “Targeting transducible molecules to specific cell types” (The Regents of the University of California, priority 2004, published 2009)
# At least one peptide structure holds a part that was inferred or is arguable (an end, a ring closure or a residue).
# How the values were obtained:
# [1] = tested on: CXCR4-expressing Namalwa lymphoma cells; assay: Namalwa lymphoma cell killing (trypan blue exclusion; apoptosis by DNA content); format: cell-based, Human
# Method: (a) Namalwa lymphoma cells were treated with 40 μM TATp53C′ or DV3-TATp53C′ peptide for 48 h. Cell viability was assessed by trypan blue exclusion. Data represents the mean and standard error from three independent experiments. […] Cells were treated with 5 μM peptide for 24 hours and analyzed for DNA content by flow cytometry. […] Cells were treated with indicated concentrations of cdk2 antagonists TAT-RxL or DV3-TAT-RxL peptides for 48 h. Cell viability was assessed by trypan blue exclusion. Data represents the mean and standard error from three independent experiments. (e) Namalwa lymphoma (CXCR4+) cells were treated with DV3-TATp53C′, TATp53C′ or DV3-TATp53MUT peptides for 24 hours. Apoptosis was determined by <2N DNA content as measured by flow cytometry and DNA staining.
# Namalwa lymphoma cells were treated with 30 μM peptide for 48 h. Cell viability was assessed by trypan blue exclusion. Data represents the mean and standard error from three independent experiments. […] Cell viability was assessed by trypan blue exclusion. […]
# (§1) Cell Culture and Flow Cytometry. […] Short-term cell viability was assessed by counting Trypan blue excluding cells on a hemocytometer. For cell cycle analysis, peptide treated cells were analyzed by FACS with 10 μg/ml propidium iodide in 0.5% NP-40. DNA profiles were analyzed using a FACScan and CellQuest software (Becton Dickinson, San Jose, Calif.).
# [2] = tested on: H1299 lung adenocarcinoma cells; assay: Peptide treatment of p53-deficient H1299 cells; format: cell-based, human; conditions: 30 μM peptide, FIG. 2C
# Method: (a) Namalwa lymphoma cells were treated with 40 μM TATp53C′ or DV3-TATp53C′ peptide for 48 h. Cell viability was assessed by trypan blue exclusion. Data represents the mean and standard error from three independent experiments. (b) DV3-TATp53C′ and TATp53C′ peptides induce similar level of p53-dependent G1 cell cycle arrest in CXCR4 non-expressing TA3/St mammary carcinoma cells. Cells were treated with 5 μM peptide for 24 hours and analyzed for DNA content by flow cytometry. (c) DV3-TATp53C′, TATp53C′ and control DV3 peptide (30 μM) have no effect on CXCR4 non-expressing, p53-deficient H1299 lung adenocarcinoma cells. […] Cells were treated with indicated concentrations of cdk2 antagonists TAT-RxL or DV3-TAT-RxL peptides for 48 h. Cell viability was assessed by trypan blue exclusion. Data represents the mean and standard error from three independent experiments. […] Apoptosis was determined by <2N DNA content as measured by flow cytometry and DNA staining.
# as §1
# [3] = tested on: Namalwa lymphoma cells; assay: Mouse model of metastatic peritoneal lymphoma (survival); format: in vivo; conditions: SCID mice, Namalwa cells i.p., 180 nmol peptide once a day for 12 days, FIG. 5
# Method: FIG. 5. Targeted DV3-TATp53C′ peptide has enhanced ability to treat mouse model of aggressive, metastatic peritoneal lymphoma. Namalwa lymphoma cells were intraperitoneally injected into SCID mice and allowed to proliferate for 48 hours. Mice were then injected once a day for 12 days with vehicle control (n=10), or 180 nmol DV3-TATp53C′ peptide (n=11), non-targeted, parental TATp53C′ peptide (n=5), or control DV3-only peptide (n=5).
smiles,measurement,setting,value
"CC(C)C[C@@H](N)C(=O)NCC(=O)N[C@H](C)C(=O)N[C@H](CO)C(=O)N[C@H](Cc1c[nH]c2ccccc12)C(=O)N[C@H](Cc1c[nH]cn1)C(=O)N[C@H](CCCNC(=N)N)C(=O)N1CCC[C@@H]1C(=O)N[C@H](CC(=O)O)C(=O)N[C@H](CCCCN)C(=O)O [DV3, LGASWHRPDK, reference compound]","Namalwa cell viability, excess DV3 peptide alone",[1]; 200M excess DV3 peptide alone,no effect
same,cell viability / cell number (in words),"[1]; Namalwa cells, 30 μM peptide, 48 h, single peptides or domains in trans, FIG. 3A",minimal effects on cell number
same,effect on p53-deficient H1299 cells,[2],little to no effect
same,median survival,[3],27 days
